Source: PMC5853926
No constants are given. Whether binding was seen depends on the method and setting. For some of these results: In cells and extracts the contact can be indirect. Some results given as binding are weak or reduced against the parent protein; the word gives no strength. For some of these results: Sequences can lack the tags named with a protein.

Sequences of proteins named here, by UniProt entry; tags and fusion partners are left off.
UniProt Q94AI6: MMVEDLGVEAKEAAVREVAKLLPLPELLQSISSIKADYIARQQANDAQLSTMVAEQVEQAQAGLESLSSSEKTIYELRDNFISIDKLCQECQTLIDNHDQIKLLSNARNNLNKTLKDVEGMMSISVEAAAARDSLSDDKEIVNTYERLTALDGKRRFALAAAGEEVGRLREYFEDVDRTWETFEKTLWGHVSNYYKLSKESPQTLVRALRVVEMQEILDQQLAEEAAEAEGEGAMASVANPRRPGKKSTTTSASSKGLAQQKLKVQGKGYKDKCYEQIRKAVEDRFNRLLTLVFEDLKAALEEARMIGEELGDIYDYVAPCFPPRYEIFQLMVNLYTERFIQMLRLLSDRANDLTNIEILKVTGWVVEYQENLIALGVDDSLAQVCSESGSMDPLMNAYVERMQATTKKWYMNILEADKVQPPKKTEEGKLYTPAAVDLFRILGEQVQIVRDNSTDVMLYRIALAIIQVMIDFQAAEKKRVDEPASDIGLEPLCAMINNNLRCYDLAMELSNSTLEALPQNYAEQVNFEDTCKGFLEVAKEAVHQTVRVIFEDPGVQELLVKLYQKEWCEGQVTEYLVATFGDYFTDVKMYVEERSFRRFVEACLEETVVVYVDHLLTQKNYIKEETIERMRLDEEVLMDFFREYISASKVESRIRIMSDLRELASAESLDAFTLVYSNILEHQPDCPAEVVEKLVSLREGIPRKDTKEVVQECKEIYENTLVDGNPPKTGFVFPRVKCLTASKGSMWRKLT

T1: EXO70B1 exocyst subunit, two-hybrid bait (Arabidopsis) (UniProt Q9FGH9)
T1 sequence: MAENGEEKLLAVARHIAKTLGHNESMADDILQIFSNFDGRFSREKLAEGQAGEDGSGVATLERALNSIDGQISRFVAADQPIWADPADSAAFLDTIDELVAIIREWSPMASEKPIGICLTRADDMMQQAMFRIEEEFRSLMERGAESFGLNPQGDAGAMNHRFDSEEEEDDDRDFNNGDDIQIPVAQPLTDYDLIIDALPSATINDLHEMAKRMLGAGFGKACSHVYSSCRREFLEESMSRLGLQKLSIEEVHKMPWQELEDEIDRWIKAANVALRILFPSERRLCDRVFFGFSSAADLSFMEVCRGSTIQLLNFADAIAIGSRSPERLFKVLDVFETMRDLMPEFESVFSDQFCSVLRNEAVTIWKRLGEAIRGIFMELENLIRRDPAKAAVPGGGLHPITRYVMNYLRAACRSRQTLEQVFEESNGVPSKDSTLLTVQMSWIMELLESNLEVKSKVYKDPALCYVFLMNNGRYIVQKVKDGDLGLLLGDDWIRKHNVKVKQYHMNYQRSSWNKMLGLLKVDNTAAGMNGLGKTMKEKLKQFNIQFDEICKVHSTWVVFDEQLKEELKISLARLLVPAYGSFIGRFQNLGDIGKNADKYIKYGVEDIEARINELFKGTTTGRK

T2: EXO70B2 exocyst subunit, two-hybrid bait (Arabidopsis) (UniProt Q9LMJ4)
T2 sequence: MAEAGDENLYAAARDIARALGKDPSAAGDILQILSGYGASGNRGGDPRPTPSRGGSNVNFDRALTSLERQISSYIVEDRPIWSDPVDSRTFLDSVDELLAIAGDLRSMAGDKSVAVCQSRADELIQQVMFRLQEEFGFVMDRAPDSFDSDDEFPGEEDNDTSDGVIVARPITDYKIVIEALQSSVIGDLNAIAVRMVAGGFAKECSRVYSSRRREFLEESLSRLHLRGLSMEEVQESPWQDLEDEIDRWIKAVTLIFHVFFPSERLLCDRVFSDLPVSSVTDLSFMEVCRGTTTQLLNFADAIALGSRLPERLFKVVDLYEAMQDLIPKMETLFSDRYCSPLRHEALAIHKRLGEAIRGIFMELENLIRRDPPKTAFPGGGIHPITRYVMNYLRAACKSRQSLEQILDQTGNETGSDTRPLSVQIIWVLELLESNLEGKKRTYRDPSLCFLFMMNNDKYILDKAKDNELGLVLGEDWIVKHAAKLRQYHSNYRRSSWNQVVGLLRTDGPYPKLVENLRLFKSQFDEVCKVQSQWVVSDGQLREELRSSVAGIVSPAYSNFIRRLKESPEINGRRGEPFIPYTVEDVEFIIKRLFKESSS

T3: GFP–RIN4 (Arabidopsis) (UniProt Q8GYN5)
T3 sequence: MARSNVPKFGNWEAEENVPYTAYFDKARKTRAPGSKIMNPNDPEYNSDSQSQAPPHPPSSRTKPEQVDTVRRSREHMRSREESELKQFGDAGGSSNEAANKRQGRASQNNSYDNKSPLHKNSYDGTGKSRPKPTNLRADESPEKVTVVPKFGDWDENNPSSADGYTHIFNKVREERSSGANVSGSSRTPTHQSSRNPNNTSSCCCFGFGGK


Legend:
[1] = target: T1, EXO70B1 exocyst subunit, two-hybrid bait (Arabidopsis); test: two-hybrid; RIN4 constructs and NOI6 in pGADT7 (prey), exocyst subunits in bait vectors; yeast plated in a 10x dilution series from OD600=0.1 on plates without leucine, tryptophan, histidine and adenine
[2] = target: SEC6 core exocyst subunit, two-hybrid bait (Arabidopsis) (UniProt Q94AI6); test: as above
[3] = target: T2, EXO70B2 exocyst subunit, two-hybrid bait (Arabidopsis); test: as above
GFP–RIN4 (Arabidopsis) = target: T3, GFP–RIN4 (Arabidopsis); test: co-IP; proteins transiently co-expressed in N. benthamiana leaves; anti-GFP magnetic beads (µMACS GFP Isolation Kit), extraction buffer with 0.1% Triton X-100; EXO70B1 detected with anti-HA antibody

| binding [1] | binding [2] | binding [3] | binding (GFP–RIN4 (Arabidopsis)) | Binder |
| --- | --- | --- | --- | --- |
| binds | no binding | binds weakly | – | RPM1 … PROTEIN 4 (RIN4), full-length, two-hybrid prey (protein, UniProt Q8GYN5 1-211) MARSNVPKFGNWEAEENVPYTAYFDKARKTRAPGSKIMNPNDPEYNSDSQSQAPPHPPSSRTKPEQVDTVRRSREHMRSREESELKQFGDAGGSSNEAANKRQGRASQNNSYDNKSPLHKNSYDGTGKSRPKPTNLRADESPEKVTVVPKFGDWDENNPSSADGYTHIFNKVREERSSGANVSGSSRTPTHQSSRNPNNTSSCCCFGFGGK |
| – | – | – | binds | HA-tagged EXO70B1 (protein, UniProt Q9FGH9 1-624) MAENGEEKLLAVARHIAKTLGHNESMADDILQIFSNFDGRFSREKLAEGQAGEDGSGVATLERALNSIDGQISRFVAADQPIWADPADSAAFLDTIDELVAIIREWSPMASEKPIGICLTRADDMMQQAMFRIEEEFRSLMERGAESFGLNPQGDAGAMNHRFDSEEEEDDDRDFNNGDDIQIPVAQPLTDYDLIIDALPSATINDLHEMAKRMLGAGFGKACSHVYSSCRREFLEESMSRLGLQKLSIEEVHKMPWQELEDEIDRWIKAANVALRILFPSERRLCDRVFFGFSSAADLSFMEVCRGSTIQLLNFADAIAIGSRSPERLFKVLDVFETMRDLMPEFESVFSDQFCSVLRNEAVTIWKRLGEAIRGIFMELENLIRRDPAKAAVPGGGLHPITRYVMNYLRAACRSRQTLEQVFEESNGVPSKDSTLLTVQMSWIMELLESNLEVKSKVYKDPALCYVFLMNNGRYIVQKVKDGDLGLLLGDDWIRKHNVKVKQYHMNYQRSSWNKMLGLLKVDNTAAGMNGLGKTMKEKLKQFNIQFDEICKVHSTWVVFDEQLKEELKISLARLLVPAYGSFIGRFQNLGDIGKNADKYIKYGVEDIEARINELFKGTTTGRK |
